Measurements published in US5380668A (University of Utah Research Foundation, priority 1993, dated 1995).

Assay: general procedure: Fmoc solid-phase peptide synthesis
Details: whole synthesis, reversed phase HPLC

H2 N-Gly-Gly-Arg-Leu-Pro-Gly-Pro-Ser-Asp-Cys-Gly-COOH (GGRLPGPSDCG)
final purity (method not given): >98%
